# Laboratory results: PubChem BioAssay AID2685 (National Center for Advancing Translational Sciences (NCATS), 2010)
# In all, about 320,000 compounds went through this assay and about 2,100 (0.66%) were called active. The shares of active, inactive and inconclusive entries below differ from those in the screen. The call rests on the fitted dose curve; in most records, active means well fitted inhibition curve with a large enough effect in the signal ratio, with a control signal flat (not every such curve was filed as active); inconclusive means small, poorly fitted or top-dose-only effect, or effect the other way, or a change in a side signal; inactive means flat fitted curve, though single readings scatter; the % refers to the signal ratio. A potency beside an inconclusive call is a rough fit, not a confirmed value.
# Experiment: qHTS Assay for Lipid Storage Modulators in Drosophila S3 Cells
# Details: BODIPY lipid droplet fluorescence, 18-24 h, cells fed with added oleic acid; lipid storage change, negative = inhibition: at 46.1 µM (top of the series) unless noted
# In short: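 Drosophila S3 cells got compounds at several concentrations plus oleic acid (400 uM solution). Laser-scanning cytometry with 488 nm excitation read lipid droplets at 500-530 nm and cells at 575-640 nm. Percent activity was relative to 20 uM Triacsin C.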
# On the % scale 0 is the no-effect control and ±100 the full control effect; potency means the concentration at half of the fitted maximal effect.
Structure (SMILES),"lipid storage change, negative = inhibition",Potency,outcome
O=C(O)C(C/C(=N/O)c1ccc(Br)cc1)P(=O)(c1ccccc1)c1ccccc1 (configuration not stated),inconclusive: -19.9%,,
CCN(CCn1cccn1)Cc1nc(-c2ccccc2)no1,inconclusive: 16.6%,,
CC(=O)Nc1ccc2nc(-c3ccc(Br)o3)[nH]c2c1,,"inconclusive: 1.64 µM [falling, partial curve]",
Cc1cc(NC(=O)CCN2CCN(C/C=C/c3ccccc3)CC2)ccc1Br,inconclusive: -8.56%,,
CCOC(=O)C(C)Oc1c(Br)cc(C2NC(=O)NC(C)=C2C(C)=O)cc1OCC (configuration not stated),inconclusive: 11.7%,,
O=C(NNC(=O)c1ccc(Br)s1)c1cccc(Cl)c1,,"inconclusive: 9.2 µM [activator, partial curve]",
Cc1ccccc1-c1noc(CNC(=O)c2ccco2)n1,,"inconclusive: 0.184 µM [activator, full curve, poor fit]",
Cc1cc2c(cc1C)C(c1ccccc1Br)CC(=O)N2 (configuration not stated),inconclusive: -15%,,
O=C1CC(O)(c2ccccc2)C(c2ccccc2)=C1c1ccccc1 (configuration not stated),,"inconclusive: 20.6 µM [cytotoxic, single point]",
CCCCN(CCCC)CCCNC(=O)CC1Oc2ccc(C)cc2NC1=O (configuration not stated),inconclusive: -2.28%,,
Cc1ccc(-c2nc(CS(=O)(=O)CC(=O)NCCN3CCCC3)c(C)o2)cc1,inconclusive: 54.3%,,
Cc1ccc(CN2CCC(CNS(=O)(=O)c3ccc(-c4ccc(=O)[nH]n4)s3)CC2)cc1,,"inconclusive: 29.1 µM [falling, single point]",
Cc1cccc(N2CCN(C(=O)C3CCN(c4ncnc5c4nc4n5CCCCC4)CC3)CC2)c1C,,"inconclusive: 1.46 µM [falling, full curve]",
COc1ccc(NC(=O)c2ccc(S(=O)(=O)N3CCCCC3)cc2)c(OC)c1,,,inactive [at 46.1 µM]
CCCOC(=O)Nc1nc2ccccc2o1,inconclusive: -3.97%,,
CC(C#N)Sc1ccc(S(=O)(=O)N(C)C2CCCCC2)cn1 (configuration not stated),inconclusive: -17.7%,,
CCN(CC)C(=O)CC1(c2ccccc2OC)CCOC(C(C)C)C1 (configuration not stated),inconclusive: -15.8%,,
COc1ccc(OC)c(NC(=O)COC(=O)/C=C/c2ccc(Cl)cc2)c1,inconclusive: -35%,,
COC(=O)c1[nH]c2ccc(F)cc2c1NS(=O)(=O)c1ccc(OC)cc1,,"inconclusive: 9.2 µM [activator, partial curve]",
O=C(NC1CCCCC1)C1CCCN(S(=O)(=O)c2ccc(F)cc2)C1 (configuration not stated),,,inactive [at 46.1 µM]
CN(C)C(=O)COc1ncnc2scc(-c3ccc(F)cc3)c12,inconclusive: 8.43%,,
CCc1ccccc1N(CC(=O)NC(C)c1ccccc1)S(C)(=O)=O (configuration not stated),inconclusive: 69.7%,,
CC(C)c1ccc(Nc2nc(NCc3ccco3)nc(N3CCOCC3)n2)cc1,,"inconclusive: 6.51 µM [falling, single point]",
CN1/C(=C/C(=O)C2CCC2)Sc2ccccc21,,"inconclusive: 2.59 µM [activator, partial curve]",

# Arranged by number of heavy atoms (smallest number first): 3 of the compounds above.
Structure (SMILES),"lipid storage change, negative = inhibition",Potency,outcome
CC(=O)Nc1ccc2nc(-c3ccc(Br)o3)[nH]c2c1,,"inconclusive: 1.64 µM [falling, partial curve]",
O=C(NC1CCCCC1)C1CCCN(S(=O)(=O)c2ccc(F)cc2)C1 (configuration not stated),,,inactive [at 46.1 µM]
Cc1cc(NC(=O)CCN2CCN(C/C=C/c3ccccc3)CC2)ccc1Br,inconclusive: -8.56%,,

# Additional compounds.

Structure (SMILES),"lipid storage change, negative = inhibition",Potency,outcome
Cc1cccc(C(=O)NCC(=O)N2CCN(S(=O)(=O)c3cc(C)ccc3C)CC2)c1,inconclusive: 9.13%,,
COc1ccccc1C(=O)NC(=Nc1nc2ccccc2o1)NC(=O)c1ccccc1OC,inconclusive: -156%,,
C#CCOc1ccc(/C=C2\SC(=S)N(Cc3cccnc3)C2=O)cc1,,"inconclusive: 1.16 µM [activator, full curve]",
CCOC(=O)Cn1cnc2scc(-c3ccccc3)c2c1=O,,"inconclusive: 8.2 µM [falling, partial curve, poor fit]",
Cc1ccc(-c2csc(N3CCC(C(N)=O)(N4CCCCC4)CC3)n2)cc1,inconclusive: -8.83%,,
Cc1ccc(N(C)C(=O)CCS(=O)(=O)c2cc3c(cc2Cl)NC(=O)CO3)cc1,,"inconclusive: 0.058 µM [activator, full curve, poor fit]",
CCOc1ccc(NC(=O)CCCN2C(=S)NC(C)(C)CC2C)cc1 (configuration not stated),inconclusive: 19.4%,,
Cc1ccc(S(=O)(=O)N2CCN(CCNC(=O)C(=O)NCc3ccccc3)CC2)cc1,,"inconclusive: 2.91 µM [activator, partial curve]",
CN(CCCC1CCCC1)C(=O)CC1C(=O)NCCN1Cc1cccc(F)c1F (configuration not stated),inconclusive: -20.3%,,
Cc1cccc(C(=O)NCC(C)NC(=O)c2cccc(C)c2)c1 (configuration not stated),inconclusive: 46.6%,,
CC1=Nc2cc(C(=O)NCCN3CCOCC3)ccc2Sc2c(C)ccc(C)c21,inconclusive: 16.8%,,
Cc1ccsc1/C=N/N=C/c1sccc1C,,active: 18.4 µM,
CCN1CCN(C(=O)/C=C/c2cccc(Cl)c2)CC1,,"inconclusive: 32.6 µM [activator, single point]",
COc1ccccc1NC(=O)/C(=C/c1cccc([N+](=O)[O-])c1)c1ccccc1,inconclusive: 30.9%,,
O=C(OCC(=O)N1CCN(C(=O)c2ccco2)CC1)c1ccccc1NCCO,inconclusive: -7.04%,,
O=C(O)CCn1cc(/C=C2\NC(=S)N(c3ccccc3)C2=O)c(-c2ccc(Br)cc2)n1,inconclusive: 22.8%,,
O=C(C1COc2ccccc2O1)N1CCCC1 (configuration not stated),,active: 6.51 µM,
O=C(Nc1nc2c(s1)CN(Cc1ccccc1)CC2)c1c(F)cccc1F,inconclusive: 6.11%,,
CCN1C(=O)[C@H]2[C@@H](c3ccc(-c4ccc(F)cc4)cc3)N[C@@](CC(C)C)(C(=O)OC)[C@H]2C1=O,,"inconclusive: 25.9 µM [falling, single point]",
O=C(CN1C(=O)C2CCCCC2C1=O)OCn1nnc2ccccc2c1=O (configuration not stated),inconclusive: 53%,,
Cc1ccnc(NC(=O)CCNC(=O)c2ccc(Cl)cc2)c1,,"inconclusive: 20.6 µM [falling, single point]",
COc1cccc(CNC(=O)c2nnn(-c3ccc(OC(F)(F)F)cc3)c2N)c1,,"inconclusive: 6.51 µM [rising, single point]",
COc1ccc([C@@H]2[C@@H]3C(=O)N(C(C)(C)C)C(=O)[C@@H]3[C@]3(Cc4ccccc4)C(=O)N(c4ccc(C(F)(F)F)cc4)C(=O)N23)cc1,inconclusive: 33.5%,,
